Where “and” joins values, the source holds several entries; their conditions need not be identical. Equal entries are not always repeated. This is one part of the list. For some assays here: Construct or isoform of the protein are uncertain.

Protein sequences, listed by entry. Tags and fused reporters are not part of them. Lines headed by an entry give the natural chain unless they say otherwise; changes in a name come on top.
UniProt Q8NEY1: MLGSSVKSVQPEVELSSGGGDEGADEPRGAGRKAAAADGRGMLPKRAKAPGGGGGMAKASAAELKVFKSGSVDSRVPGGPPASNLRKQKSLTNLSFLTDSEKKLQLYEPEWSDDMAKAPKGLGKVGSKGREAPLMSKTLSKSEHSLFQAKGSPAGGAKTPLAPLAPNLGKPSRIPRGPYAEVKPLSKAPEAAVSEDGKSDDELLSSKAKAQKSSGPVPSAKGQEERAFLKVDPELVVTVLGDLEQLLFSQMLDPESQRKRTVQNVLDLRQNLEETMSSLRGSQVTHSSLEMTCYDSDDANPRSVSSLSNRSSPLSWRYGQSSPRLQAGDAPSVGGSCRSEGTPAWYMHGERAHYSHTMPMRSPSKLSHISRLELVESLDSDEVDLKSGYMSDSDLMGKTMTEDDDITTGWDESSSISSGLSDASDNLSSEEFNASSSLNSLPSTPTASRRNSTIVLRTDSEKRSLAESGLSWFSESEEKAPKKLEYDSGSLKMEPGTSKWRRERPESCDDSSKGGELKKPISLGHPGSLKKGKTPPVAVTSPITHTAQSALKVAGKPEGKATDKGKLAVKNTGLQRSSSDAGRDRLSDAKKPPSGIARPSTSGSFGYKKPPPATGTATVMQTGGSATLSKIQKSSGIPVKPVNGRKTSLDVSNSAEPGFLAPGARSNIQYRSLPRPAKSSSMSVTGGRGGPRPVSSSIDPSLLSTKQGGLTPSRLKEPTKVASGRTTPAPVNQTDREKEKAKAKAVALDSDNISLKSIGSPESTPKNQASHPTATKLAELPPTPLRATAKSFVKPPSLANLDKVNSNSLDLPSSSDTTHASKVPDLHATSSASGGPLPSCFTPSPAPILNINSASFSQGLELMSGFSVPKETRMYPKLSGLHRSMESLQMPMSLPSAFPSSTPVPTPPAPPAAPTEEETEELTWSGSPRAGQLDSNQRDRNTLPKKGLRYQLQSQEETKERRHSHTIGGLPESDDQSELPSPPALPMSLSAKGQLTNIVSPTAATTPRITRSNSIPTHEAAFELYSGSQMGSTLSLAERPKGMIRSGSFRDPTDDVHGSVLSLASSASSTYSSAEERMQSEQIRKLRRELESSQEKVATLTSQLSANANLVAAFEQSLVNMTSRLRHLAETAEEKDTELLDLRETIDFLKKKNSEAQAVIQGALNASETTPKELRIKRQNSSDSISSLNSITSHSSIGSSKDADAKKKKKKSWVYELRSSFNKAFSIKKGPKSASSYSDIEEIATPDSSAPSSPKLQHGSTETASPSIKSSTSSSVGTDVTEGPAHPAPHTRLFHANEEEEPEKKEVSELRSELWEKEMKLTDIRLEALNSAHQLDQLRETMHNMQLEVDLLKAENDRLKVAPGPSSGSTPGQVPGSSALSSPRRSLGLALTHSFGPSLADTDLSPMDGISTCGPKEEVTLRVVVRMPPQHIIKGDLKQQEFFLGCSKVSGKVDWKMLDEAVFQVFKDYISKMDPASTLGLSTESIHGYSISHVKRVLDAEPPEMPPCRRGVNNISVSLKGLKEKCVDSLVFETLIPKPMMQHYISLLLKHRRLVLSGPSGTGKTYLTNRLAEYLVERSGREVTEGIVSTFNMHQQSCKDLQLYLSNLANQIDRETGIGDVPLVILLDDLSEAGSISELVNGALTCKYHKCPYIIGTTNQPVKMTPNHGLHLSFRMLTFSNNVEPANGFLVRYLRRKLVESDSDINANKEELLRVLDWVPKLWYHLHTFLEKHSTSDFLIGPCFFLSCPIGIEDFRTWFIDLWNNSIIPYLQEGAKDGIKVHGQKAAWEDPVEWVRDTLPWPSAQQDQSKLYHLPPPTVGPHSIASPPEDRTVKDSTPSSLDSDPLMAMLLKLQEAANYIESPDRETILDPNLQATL
UniProt O43676, whole entry: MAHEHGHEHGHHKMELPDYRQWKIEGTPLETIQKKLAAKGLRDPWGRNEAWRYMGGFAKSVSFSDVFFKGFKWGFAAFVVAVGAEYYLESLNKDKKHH

Among the test systems are NAPRT1 (human); NASP (human); NBPF1 (human); NBPF22P (human); NDRG2 (human); NDRG4 (human); NDUFA4 (human); NDUFA5 (human); NDUFB1 (human); NDUFB10 (human); NETO1 (human); NFKBIB (human); NINJ1 (human); NINJ2 (human); NIPSNAP3B (human); NIT2 (human).
Common to all, as to assay: protein microarray (ProtoArray v5.0), streptavidin-Alexa Fluor 647
Holding throughout (conditions): 3'-biotin; 20 mM Tris (pH 7.5), 5 mM MgCl2, 100 mM KCl, 0.1% Tween-20, A/T-rich and random oligonucleotide blockers; temperature not stated; high values mean tight binding

In another assay the target is NAV1 (UniProt Q8NEY1).
The next assay addresses NDUFB3 (UniProt O43676).
Assay [1] has as its system NEDD8-activating enzyme E1 catalytic subunit (human).
Assay [2] relates to NFU1 iron-sulfur cluster scaffold homolog, mitochondrial (human).

Regarding “GGGGACAGGGGTATGGGGAGGGG [G4-3 biotinylated (CtG)]”, the binding signal in the assay with NAPRT1 (human) is -0.331 z-score; in the assay on NASP (human), -0.332 z-score; with NAV1, -0.33 z-score; in the assay on NBPF1 (human), -0.337 z-score; in the assay on NBPF22P (human), -0.34 z-score; in the assay with NDRG2 (human), -0.309 z-score. Moreover, the binding signal with NDRG4 (human) is -0.335 z-score and -0.343 z-score; with NDUFA4 (human), -0.304 z-score; with NDUFA5 (human), -0.341 z-score; with NDUFB1 (human), -0.327 z-score; in the assay on NDUFB10 (human), -0.315 z-score; with NDUFB3, -0.32 z-score. For the same sequence, the binding signal in assay [1] was -0.334 z-score; in the assay on NETO1 (human) it was -0.325 z-score; with NFKBIB (human), -0.335 z-score; in [2], -0.336 z-score; with NINJ1 (human), -0.297 z-score; with NINJ2 (human), -0.32 z-score. The binding signal in the assay with NIPSNAP3B (human) was -0.322 z-score; in the assay with NIT2 (human), -0.33 z-score.

Source of the values: article PMC5996148.
